Some entries share one result that the patent states for a list of compounds. At least one structure is not confirmed: it was looked up by name or label, or the drawing left a doubt.
Key:
Assay type in all cases: physicochemical
[1] = Small amplitude oscillatory shear rheology of hydrogels (strain sweep, frequency sweep, thixotropy); conditions: strain sweep at 10 rad/s
Protocol: Rheometry. The viscoelastic mechanical properties of the hydrogels were characterized using small amplitude oscillatory shear rheology on a Discovery Hybrid Rheometer 2 (TA Instruments, USA) with a sandblasted 20 mm cone-and-plate geometry at a 1° angle and a sandblasted stage. Inertia, friction, and rotational mapping calibrations were performed prior to each experiment. A Peltier temperature-controlled stage was maintained at 4° C., 10° C., 25° C., or 37° C. for rheology testing. Hydrogels were heated in a water bath above their transition temperature for 5 min, then transferred to the stage before the geometry was lowered quickly (1-3 sec) to the testing gap height of 50 μm. Excess gel was trimmed from the edges of the assembly. To control evaporation, the assembly was encased in a solvent trap with a water seal, and a mineral oil barrier was placed around the edges of the trap. Hydrogels were allowed to form and relax for 1 hour prior to experimentation. Strain sweeps were performed from 0.01% to 1000% shear strain at a constant 10 rad/s angular frequency. G′ (storage modulus) and G″ (loss modulus) were determined by averaging data within the linear viscoelastic region of the strain sweep. Frequency sweeps were performed from 0.01 rad/s to 100 rad/s at a constant 0.01% shear strain. Thixotropy experiments were conducted by cycling the shear strain between 0.01% and 100%.
Mechanical Properties by Rheology. Viscoelasticity is an important property of hydrogels, as different mechanical properties dictate utility in different applications. Rheology was used to characterize the viscoelastic properties of these thioglycolipid hydrogels. The two parameters of interest in these studies were storage modulus (G′) and loss modulus (G″). Materials for which G′>G″ are considered more solid-like, the desired behavior for hydrogels; in contrast, systems for which G″>G′ are considered more liquid-like. The magnitude of G′ is also an important parameter, as different hydrogel applications require different storage moduli. For instance, hydrogel scaffolds used for the replacement of functional tissues such as cardiovascular or musculoskeletal connective tissues require hydrogels with G′>1 kPa; similarly, stiff peptide hydrogels with G′>10 kPa are candidates for tissue engineering applications.
Strain sweep experiments were conducted on thioglycolipid hydrogels from 0.01% to 1000% shear strain at a constant 10 rad/s angular frequency at different temperatures, and frequency sweep experiments were performed from 0.01 rad/s to 100 rad/s at a constant 0.01% shear strain. All samples tested were at 1 wt % concentration except LacSC10 which was studied at 2 wt % given its required higher concentration for full gelation. […]

[2] = Storage stability of metastable hydrogels at 5° C.; conditions: retained at 5° C.
[3] = Stability of hydrogel microparticles made by droplet microfluidics; conditions: room temperature, 40-60 μm particles from 1 wt % solution; maximum time studied
[4] = Visual assessment of thioglycolipid aggregation and hydrogel formation; conditions: room temperature
Protocol: Preparation of Thioglycolipid Solutions and Hydrogel Fabrication. Aqueous solutions of thioglycolipids were prepared by weighing 2-3 mg of thioglycolipids and adding an appropriate volume of water to make solution samples at desired concentrations in vials. The vials were capped, sealed with Parafilm, and heated to 75° C. (or 85° C. for LacSC12) until the thioglycolipids were completely dissolved, which typically required about 1 min. The samples were then allowed to cool to ambient temperature. Above some minimal concentration, the solution forms hydrogels upon cooling (FIG. 1). While hydrogelation happens in under 1 min, the gels were allowed to equilibrate at room temperature for 15 min before any analysis. To make metastable thiocellobiosides gels, the samples were quenched at −4° C. after dissolution at 75° C. Although the metastable hydrogels also formed in under 1 min, the gels were allowed to equilibrate at −4° C. for 15 min before analysis.
Visual Assessment of Thioglycolipid Hydrogel Formation. A wide range of thioglycolipid solutions were evaluated to establish concentration conditions (wt %) under which hydrogelation occurs and to assess the formation of other phases. For LacSC8 and LacSC12 solutions at concentrations <0.5 wt %, the solutions were either clear (C) or contain large aggregates (O) (i.e., cloudy). […]

With `CCCCCCCCCCS[C@@H]1O[C@H](CO)[C@@H](O[C@@H]2O[C@H](CO)[C@@H](O)[C@H](O)[C@H]2O)[C@H](O)[C@H]1O` [CelSC10] the “Rheology crossover point (shear strain)” value ([1]; 4° C., 1 wt % (LacSC10 2 wt %)) was > 100%, the “Time gels were stable” value [2] was “at least 6 months” and the “Time microparticles were stable in solution” value [3] was “over 1 week”.
With `CCCCCCCCCCCCS[C@@H]1O[C@H](CO)[C@@H](O[C@@H]2O[C@H](CO)[C@@H](O)[C@H](O)[C@H]2O)[C@H](O)[C@H]1O` [CelSC12] the “Rheology crossover point (shear strain)” value ([1]; 4° C., 1 wt % (LacSC10 2 wt %)) was > 100% and the “Time gels were stable” value [2] was “at least 6 months”.
For `CCCCCCCCS[C@@H]1O[C@H](CO)[C@@H](O[C@@H]2O[C@H](CO)[C@H](O)[C@H](O)[C@H]2O)[C@H](O)[C@H]1O` [LacSC8], the “Concentration at which solutions were completely gelled” value [4] was “at least 1 wt %” and the “Time microparticles were stable in solution” value [3] was “over 1 week”.
With `CCCCCCCCCCS[C@@H]1O[C@H](CO)[C@@H](O[C@@H]2O[C@H](CO)[C@H](O)[C@H](O)[C@H]2O)[C@H](O)[C@H]1O` [LacSC10] the “Rheology crossover point (shear strain)” value ([1]; 4° C., 1 wt % (LacSC10 2 wt %)) was > 100% and the “Rheology crossover point (shear strain)” value ([1]; 10° C., 2 wt %) was > 100%.
For `CCCCCCCCCCCCS[C@@H]1O[C@H](CO)[C@@H](O[C@@H]2O[C@H](CO)[C@H](O)[C@H](O)[C@H]2O)[C@H](O)[C@H]1O` [LacSC12], the “Concentration at which solutions were completely gelled” value [4] was “at least 1 wt %”.
